# Reference: US20060140858A1, “Drug pre-targeting by means of bi-specific antibodies and hapten constructs comprising a carrier peptide and the active agent(s)” (Immunomedics, Inc., priority 2002, published 2006)
# At least one peptide structure holds a part that was inferred or is arguable (an end, a ring closure or a residue). *1 amine or outer side, *2 acyl side, *3 side chain or, on linkers, in order; H or OH if unused. Where a SMILES comes first, the peptide text is derived from it. Side-chain parts run from the residue outwards. [ ]: non-standard residue; d: D form. The star is where a group is joined. DOTA = O=C(O)CN1CCN(CC(=O)O)CCN(CC(=O)*)CCN(CC(=O)O)CC1; NH(2-(imidazol-4-yl)ethyl) = c1ncc(CCN*)[nH]1; Suc = O=C(CCC(=O)[*:2])[*:1]; X1 = NC(=S)NN=CC(=O)*
# Tests used:
# [1] = test system: mMU-9×m679 and hMN-14×m679 bi-specific antibodies; assay: Size exclusion HPLC binding of Tc-99m IMP 245 to bi-specific antibodies
# 679 IgG = assay: Binding of labeled peptide to excess 679 IgG by size exclusion HPLC; design: species or system murine
# Experimental: The ^90Y (˜400 μCi/kit) was diluted to 1 mL in deionized water and added to the lyophilized kits. The kits were heated in a boiling water bath for 15 min, the vials were cooled to room temperature and the labeled peptides were evaluated by reverse phase HPLC (HPLC conditions: Waters Nova-Pak C-18, 8×100 mm RCM column eluted at 3 mL/min with a linear gradient from 100% (0.1% TFA in H2O) to 100% (90% CH3CN, 0.1% TFA, 10% H2O)).
# The ^111In (˜300 μCi/kit) was diluted to 0.5 mL in deionized water and added to the lyophilized kits. The kits were heated in a boiling water bath for 15 min, the vials were cooled and 0.5 mL of 2.56×10^−5 M In in 0.5 M acetate buffer was added and the kits were again heated in the boiling water bath for 15 min. The labeled peptide vials were cooled to room temperature and evaluated by reverse phase HPLC (HPLC conditions: Waters Nova-Pak C-18, 8×100 mm RCM column eluted at 3 mL/min with a linear gradient from 100% (0.1% TFA in H2O) to 100% (90% CH3CN, 0.1% TFA, 10% H2O)).
# The mixture was centrifuged and DTPA was added to a final concentration of 3 mM. After 15 min at room temperature, the final volume was raised to 1.0 mL with 0.1 M sodium acetate, pH 6.5. The amount of unbound isotope was determined by reverse phase HPLC and ITLC developed in saturated sodium chloride solution. Reverse phase HPLC analyses were performed on a Waters 8×100 mm radial Pak cartridge filled with a C-18 Nova-Pak 4 μm stationary phase. The column was eluted at 1.5 mL/min with a linear gradient of 100% A (0.075% TFA in water) to 55% A and 45% B where B was 0.075% of TFA in 75% acetonitrile and 25% water over 15 min. At 15 min, solvent was switched to 100% B and maintained there for 5 min before re-equilibration to initial conditions.
# Fifteen minutes later, the final volume was increased to 1.0 mL with 0.1 M sodium acetate, pH 6.5.
SMILES,binding to bi-specific antibodies (size exclusion HPLC) [1],binding to excess 679 IgG by size exclusion HPLC (679 IgG; ^111In labeled peptide),binding to excess 679 IgG by size exclusion HPLC (679 IgG; ^90Y labeled peptide)
"NC(=O)[C@H](CCCCNC(=O)[C@H](CS)NC(=O)C=NNC(N)=S)NC(=O)[C@H](CCCCNC(=O)CNC(=O)CCC(=O)NCCc1cnc[nH]1)NC(=O)[C@@H](Cc1ccc(O)cc1)NC(=O)[C@H](CCCCNC(=O)CNC(=O)CCC(=O)NCCc1cnc[nH]1)NC(=O)[C@H](Cc1ccccc1)NC(=O)CN1CCN(CC(=O)O)CCN(CC(=O)O)CCN(CC(=O)O)CC1 [IMP 245, DOTA-Phe-Lys(HSG)-D-Tyr-Lys(HSG)-Lys(Tscg-Cys)-NH2] ({DOTA}-FK([Gly-Suc-NH(2-(imidazol-4-yl)ethyl)])[dY]K([Gly-Suc-NH(2-(imidazol-4-yl)ethyl)])K([Cys-X1])-NH2)",binds to two mMU-9×m679 and two hMN-14×m679 bi-specific antibodies,–,–
"NC(=O)[C@H](CCCCNC(=O)CNC(=O)CCC(=O)NCCc1cnc[nH]1)NC(=O)[C@@H](Cc1ccc(O)cc1)NC(=O)[C@H](CCCCNC(=O)CNC(=O)CCC(=O)NCCc1cnc[nH]1)NC(=O)[C@H](Cc1ccccc1)NC(=O)CN1CCN(CC(=O)O)CCN(CC(=O)O)CCN(CC(=O)O)CC1 [IMP 241, DOTA-Phe-Lys(HSG)-D-Tys-Lys(HSG)-NH2] ({DOTA}-FK([Gly-Suc-NH(2-(imidazol-4-yl)ethyl)])[dY]K([Gly-Suc-NH(2-(imidazol-4-yl)ethyl)])-NH2)",–,binding to the antibody,–
"NC(=O)[C@H](CCCCNC(=O)CNC(=O)CCC(=O)NCCc1cnc[nH]1)NC(=O)[C@H](Cc1ccc(O)cc1)NC(=O)[C@H](CCCCNC(=O)CNC(=O)CCC(=O)NCCc1cnc[nH]1)NC(=O)[C@H](Cc1ccccc1)NC(=O)CN1CCN(CC(=O)O)CCN(CC(=O)O)CCN(CC(=O)O)CC1 [IMP 237, DOTA-Phe-Lys(HSG)-Tyr-Lys(HSG)-NH2] ({DOTA}-FK([Gly-Suc-NH(2-(imidazol-4-yl)ethyl)])YK([Gly-Suc-NH(2-(imidazol-4-yl)ethyl)])-NH2)",–,completely bound,completely bound
